Article PMC3281193, “Quinol derivatives as potential trypanocidal agents” (Bioorganic & Medicinal Chemistry, 2012)
Some compounds share one wording; it may come from a single statement.

Legend:
[1] = tested on: blood stream form T. brucei; test: 96-well HTS assay against blood stream form T. brucei; assay type: cell-based, Trypanosoma brucei; settings: species selectivity; for Spec. select.: EC50 (MRC5)/EC50 (T. brucei): Table 2
Procedure: (§1) The 96-well HTS assays against blood stream form T. brucei[38] and MRC5 cells were carried out as reported previously.[39] The manual assays performed on the AT1 double knock out T. brucei and wild type T. brucei were conducted as described by Jones et al.[39]

T. brucei AT1 KO = test: 96-well manual assay on AT1 double knock out T. brucei (P2 transporter knock out); assay type: cell-based, Trypanosoma brucei; settings: wild type versus P2 knock out strain
Procedure: In order to determine if analogues 35, 38, 44 and 46 are substrates for the P2 transporter they were assayed against a line of T. brucei lacking the gene which codes for the P2 transporter (Table 2).[33] […] Compounds 8 and 19,[25] which contain the triazole and indolyl quinol pharmacophore respectively, but lack a P2 motif, served as negative controls.
as §1

SMILES | Spec. select.: EC50 (MRC5)/EC50 (T. brucei) [1] | Spec. select: EC50 (MRC5)/EC50 (T. brucei) ([1]; Table 1) | substrate for the P2 transporter protein (T. brucei AT1 KO)
COc1ccc(-n2cc(C3(O)C=CC(=O)C=C3)nn2)cc1 [Compound 8] | 2.4 |  | 
CC(=O)OC[C@H]1O[C@@H](n2cc(C3(O)C=CC(=O)C=C3)nn2)[C@H](OC(C)=O)[C@@H](OC(C)=O)[C@H]1OC(C)=O [Compound 11] |  | >5 | 
COC(=O)CCc1ccc(S(=O)(=O)n2c(C3(O)C=CC(=O)C=C3)cc3ccccc32)cc1 [Compound 19, Methyl 3-(4-((2-(1-hydroxy-4-oxocyclohexa-2,5-dien-1-yl)-1H-indol-1-yl)sulfonyl)phenyl) propanoate] | 1.8 |  | 
N=C(N)c1ccc(-n2cc(C3(O)C=CC(=O)C=C3)nn2)cc1 [Compound 35, 4-(4-(1-Hydroxy-4-oxocyclohexa-2,5-dienyl)-1H-1,2,3-triazol-1-yl)benzimidamide] | >5 |  | not substrates for the P2 transporter protein
Nc1nc(N)nc(-n2cc(C3(O)C=CC(=O)C=C3)nn2)n1 [Compound 38, 4-(1-(4,6-Diamino-1,3,5-triazin-2-yl)-1H-1,2,3-triazol-4-yl)-4-hydroxycyclohexa-2,5-dienone] | >8 |  | not substrates for the P2 transporter protein
Nc1nc(N)nc(NCCCOC(=O)CCc2ccc(S(=O)(=O)n3c(C4(O)C=CC(=O)C=C4)cc4ccccc43)cc2)n1 [Compound 44, 3-((4,6-Diamino-1,3,5-triazin-2-yl)amino)propyl 3-(4-((2-(1-hydroxy-4-oxocyclohexa-2,5-dien-1-yl)-1H-indol-1-yl)sulfonyl)phenyl)propanoate] |  |  | not substrates for the P2 transporter protein
Nc1nc(N)nc(NCCCNC(=O)CCc2ccc(S(=O)(=O)n3c(C4(O)C=CC(=O)C=C4)cc4ccccc43)cc2)n1 [Compound 46, N-(3-((4,6-Diamino-1,3,5-triazin-2-yl)amino)propyl)-3-(4-((2-(1-hydroxy-4-oxocyclohexa-2,5-dien-1-yl)-1H-indol-1-yl)sulfonyl)phenyl)propanamide] |  |  | not substrates for the P2 transporter protein
